In patent US20240066086A1, “Topical Hyperpigmentation Compositions and Method of Use” (Allergan Sales, LLC, priority 2022, published 2024):
Some results were stated once for a whole list of compounds, not compound by compound. At least one compound was matched to its structure with a doubt left.

System: human melanoma cell line MNT-1 cells
Assay: in vitro melanogenesis / melanin production in MNT-1 cells
Format: cell-based
Details: after seven days; concentrations ranging from 0.1 μM to 5 μM
Description: In the MNT-1 cell in vitro tests, neferine and liensinine reduced melanin production after seven days by at least 50%, 60%, 70%, 80% or greater at concentrations ranging from 0.1 μM to 5 μM.

Structure (SMILES) | reduction of melanin production
COc1ccc(C[C@@H]2c3cc(Oc4cc(C[C@@H]5c6cc(OC)c(OC)cc6CCN5C)ccc4O)c(OC)cc3CCN2C)cc1 [Neferine, neferine] | at least 50%
COc1cc2c(cc1OC)[C@@H](Cc1ccc(O)c(Oc3cc4c(cc3OC)CCN(C)[C@@H]4Cc3ccc(O)cc3)c1)N(C)CC2 [liensinine] | at least 50%
